Experiment in all cases: single-molecule pull-down and co-IP
The target in test [1] is BCL2 D103E-mCherry (UniProt P10415).
For test [2], the target named is BCL2 G101V-mCherry (UniProt P10415).
Test [3] deals with MCL1-mCherry (UniProt Q07820).
For test [4], the target named is BCL2-mCherry (wild type), P10415. The conditions noted are these: remark: other sources report otherwise.

Protein sequences, listed by entry. Tags and fused reporters are not part of them. Lines headed by an entry give the natural chain unless they say otherwise; changes in a name come on top.
UniProt P10415: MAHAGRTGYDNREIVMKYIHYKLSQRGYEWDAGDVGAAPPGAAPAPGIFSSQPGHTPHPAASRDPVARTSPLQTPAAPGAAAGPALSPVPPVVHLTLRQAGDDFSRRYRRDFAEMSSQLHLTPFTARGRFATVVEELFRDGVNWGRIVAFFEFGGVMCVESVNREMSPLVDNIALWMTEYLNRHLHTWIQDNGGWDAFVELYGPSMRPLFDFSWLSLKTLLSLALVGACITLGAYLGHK
UniProt Q07820: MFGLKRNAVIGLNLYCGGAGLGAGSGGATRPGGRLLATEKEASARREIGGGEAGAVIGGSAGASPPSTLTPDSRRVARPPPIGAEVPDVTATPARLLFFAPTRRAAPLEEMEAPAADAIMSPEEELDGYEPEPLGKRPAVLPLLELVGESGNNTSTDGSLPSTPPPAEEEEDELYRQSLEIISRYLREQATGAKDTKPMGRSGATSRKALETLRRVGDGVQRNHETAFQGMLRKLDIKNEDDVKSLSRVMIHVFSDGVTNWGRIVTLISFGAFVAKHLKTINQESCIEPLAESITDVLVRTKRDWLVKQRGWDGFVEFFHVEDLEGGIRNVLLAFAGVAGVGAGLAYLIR

No constants are given. Whether binding was seen depends on the method and setting. Binding seen in cells or lysates may run through a third protein. Some binding calls cover weakened binding; strength is not graded here. Where a sequence is shown, tags or fusion partners need not be part of it.

B1: BAD-eGFP (protein, UniProt Q92934 1-168)
chain: MFQIPEFEPSEQEDSSSAERGLGPSPAGDGPSGSGKHHRQAPGLLWDASHQQEQPTSSSHHGGAGAVEIRSRHSSYPAGTEDDEGMGEEPSPFRGRSRSAPPNLWAAQRYGRELRRMSDEFVDSFKKGLPRPKSAGTATQMRQSSSWTRVFQSWWDRNLGRGSSAPSQ
B1: the binding entry was “binds” in test [1], “binds” in test [2] and “no binding” in test [3].

B2: BAD-eGFP, Q92934 1-168 (protein)
chain: MFQIPEFEPSEQEDSSSAERGLGPSPAGDGPSGSGKHHRQAPGLLWDASHQQEQPTSSSHHGGAGAVEIRSRHSSYPAGTEDDEGMGEEPSPFRGRSRSAPPNLWAAQRYGRELRRMSDEFVDSFKKGLPRPKSAGTATQMRQSSSWTRVFQSWWDRNLGRGSSAPSQ
Regarding B2, the binding entry in test [4] is reported as “binds”.

(Values after paper doi:10.1101/2024.02.04.578783.)
